The text below walks through data of publication PMC8136785, “Short DNA/RNA heteroduplex oligonucleotide interacting proteins are key regulators of target gene silencing”.

Amino acid sequences for entries named in this document (tags omitted). Residues count along the entry.
UniProt P39749, whole entry: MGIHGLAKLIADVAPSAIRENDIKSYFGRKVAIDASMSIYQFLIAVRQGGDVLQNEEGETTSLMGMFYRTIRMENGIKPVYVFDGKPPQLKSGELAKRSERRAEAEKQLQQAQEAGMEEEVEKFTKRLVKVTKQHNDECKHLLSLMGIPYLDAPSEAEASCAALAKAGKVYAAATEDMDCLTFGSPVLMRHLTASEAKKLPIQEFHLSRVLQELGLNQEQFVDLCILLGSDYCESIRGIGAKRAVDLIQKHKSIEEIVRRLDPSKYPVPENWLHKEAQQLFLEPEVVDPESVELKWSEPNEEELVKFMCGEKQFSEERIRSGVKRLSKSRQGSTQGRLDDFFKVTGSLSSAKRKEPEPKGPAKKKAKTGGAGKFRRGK
UniProt P28352, whole entry: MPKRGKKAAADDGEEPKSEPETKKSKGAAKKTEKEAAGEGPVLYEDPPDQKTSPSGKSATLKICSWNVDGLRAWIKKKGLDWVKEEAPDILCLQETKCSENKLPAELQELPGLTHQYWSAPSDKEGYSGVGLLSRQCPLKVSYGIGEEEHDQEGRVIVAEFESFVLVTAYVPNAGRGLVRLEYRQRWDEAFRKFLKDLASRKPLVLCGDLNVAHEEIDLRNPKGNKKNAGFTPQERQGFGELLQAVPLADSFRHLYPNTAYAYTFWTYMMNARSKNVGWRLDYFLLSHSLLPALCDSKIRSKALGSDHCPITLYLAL
UniProt P28352, 2-317: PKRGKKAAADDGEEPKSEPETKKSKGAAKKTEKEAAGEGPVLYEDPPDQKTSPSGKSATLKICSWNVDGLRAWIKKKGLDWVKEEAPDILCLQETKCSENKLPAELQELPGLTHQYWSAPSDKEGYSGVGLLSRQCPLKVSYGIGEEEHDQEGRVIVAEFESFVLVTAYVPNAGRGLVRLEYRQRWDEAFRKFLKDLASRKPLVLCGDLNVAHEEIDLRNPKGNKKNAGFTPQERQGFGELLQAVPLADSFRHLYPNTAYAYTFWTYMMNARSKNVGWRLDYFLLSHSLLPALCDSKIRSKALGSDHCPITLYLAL

The exact form of at least one protein or probe is not confirmed. For some assays here: A weaker result is weaker than the reference pair of the same experiment. For some assays here: At least one verdict was read from the data and is not stated in words by the source. For some assays here: Where a protein sequence is shown, tags need not be part of it. For some assays here: Results from cells or extracts need not show a direct contact.

The target of series [1] is FEN1 (UniProt P39749). Briefly: EMSA. The note with it: EMSA: 1 uM nucleic acid, 20 min 37 C, N buffer (100 mM NaCl, 20 mM Tris-acetate pH 8.0, 0.1 mM EDTA, 0.01% Triton X) or M buffer, recombinant protein, protein details: GST cleaved with PreScission, DNA:RNA hybrid. In general terms: Mobility shift assays separate free from complexed probe on a gel.
Series [2] deals with APEX1 (UniProt P28352). Briefly: EMSA. The note with it: EMSA: 1 uM nucleic acid, 20 min 37 C, N buffer (100 mM NaCl, 20 mM Tris-acetate pH 8.0, 0.1 mM EDTA, 0.01% Triton X) or M buffer, recombinant protein, protein details: His (pET28a), DNA:RNA hybrid.
In series [3] the target is T1, ANXA5 (annexin A5) (UniProt P48036).
T1 sequence (looked up, limits assumed): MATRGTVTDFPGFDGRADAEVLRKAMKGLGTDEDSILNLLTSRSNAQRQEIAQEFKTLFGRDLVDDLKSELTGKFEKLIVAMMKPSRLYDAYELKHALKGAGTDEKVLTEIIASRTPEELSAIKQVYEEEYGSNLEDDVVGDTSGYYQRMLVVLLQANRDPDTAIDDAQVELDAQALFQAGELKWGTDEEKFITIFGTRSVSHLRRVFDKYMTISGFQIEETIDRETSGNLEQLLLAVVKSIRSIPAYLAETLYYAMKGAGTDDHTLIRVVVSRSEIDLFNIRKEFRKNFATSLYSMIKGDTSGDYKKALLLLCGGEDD
Briefly: EMSA. As to conditions: EMSA: 1 uM nucleic acid, 20 min 37 C, N buffer (100 mM NaCl, 20 mM Tris-acetate pH 8.0, 0.1 mM EDTA, 0.01% Triton X) or M buffer, recombinant protein, protein details: His (pET28a), DNA:RNA hybrid.

Series [4] concerns the target T2, CA8 (carbonic anhydrase 8) (UniProt P28651).
T2 sequence: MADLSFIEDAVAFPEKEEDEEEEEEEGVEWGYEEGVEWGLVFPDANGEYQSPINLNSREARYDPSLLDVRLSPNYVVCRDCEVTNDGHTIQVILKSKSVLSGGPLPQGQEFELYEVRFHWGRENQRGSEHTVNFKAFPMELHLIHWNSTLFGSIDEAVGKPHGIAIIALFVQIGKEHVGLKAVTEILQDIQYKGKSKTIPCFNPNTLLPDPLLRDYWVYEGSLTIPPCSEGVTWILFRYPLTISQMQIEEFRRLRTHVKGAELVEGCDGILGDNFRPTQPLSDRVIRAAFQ
Kind of series: EMSA. The note with it: EMSA: 1 uM nucleic acid, 20 min 37 C, N buffer (100 mM NaCl, 20 mM Tris-acetate pH 8.0, 0.1 mM EDTA, 0.01% Triton X) or M buffer, recombinant protein, protein details: His (pET28a), DNA:RNA hybrid.

For series [5], the target named is T3, CA8 in cell lysate (UniProt P28651).
T3 sequence (looked up, limits assumed): T2 sequence
Briefly: pull-down.

In series [6] the target is FEN1 in cell lysate (UniProt P39749). Briefly: pull-down. The note with it: stronger than ANXA5 and CA8, as N1, protein in an extract, label: 5' biotin-TEG on ASO, DNA:RNA hybrid.
In series [7] the target is T4, ANXA5 in cell lysate (UniProt P48036).
T4 sequence (looked up, limits assumed): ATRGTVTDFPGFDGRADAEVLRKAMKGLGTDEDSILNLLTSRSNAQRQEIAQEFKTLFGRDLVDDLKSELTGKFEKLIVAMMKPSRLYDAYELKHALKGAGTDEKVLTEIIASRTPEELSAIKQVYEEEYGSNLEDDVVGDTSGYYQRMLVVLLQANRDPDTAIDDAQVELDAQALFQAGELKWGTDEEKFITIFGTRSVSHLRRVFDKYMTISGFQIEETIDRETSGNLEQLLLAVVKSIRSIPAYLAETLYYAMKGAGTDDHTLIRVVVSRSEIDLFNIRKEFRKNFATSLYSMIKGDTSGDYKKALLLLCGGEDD
Kind of series: pull-down.

The target in series [8] is APEX1 in cell lysate (UniProt P28352). Kind of series: pull-down. The note with it: stronger than ANXA5 and CA8, as N1, protein in an extract, label: 5' biotin-TEG on ASO, DNA:RNA hybrid.
[9] abbreviates: N buffer (100 mM NaCl, no Mg2+), ASO full PS, LNA 3+3 gapmer, '5'(L) read as LNA 5-methyl-C, cRNA PS-PO mixed, 2'-OMe 3+3, 5' tocopherol.
Where [10] appears, read: vs PS-ASO, full PO LNA gapmer ASO, full PO 2'-OMe 3+3 cRNA, 5' tocopherol.
[11] abbreviates: vs PS-ASO, full PO LNA gapmer ASO, full PS 2'-OMe 3+3 cRNA, 5' tocopherol.
[12] abbreviates: vs PS-ASO, as N1 with full PO LNA gapmer ASO.
[13] abbreviates: weak affinity, as N1, protein in an extract, label: 5' biotin-TEG on ASO, DNA:RNA hybrid.
[14] abbreviates: no Toc, as N7 without tocopherol.

On to “CTAGTTCACTGAATGC / GCAUUCAGUGAACUAG [Toc-Malat1 HDO (16-mer)]”, for which the binding result in series [1] (M buffer (8 mM MgCl2), ASO full PS, LNA 3+3 gapmer, '5'(L) read as LNA 5-methyl-C, cRNA PS-PO mixed, 2'-OMe 3+3, 5' tocopherol) is listed as “binds”; in series [1] (setting [9]), “binds”; in series [2] (M buffer (8 mM MgCl2), slightly weaker than N buffer, larger smeared complex, ASO full PS, LNA 3+3 gapmer, '5'(L) read as LNA 5-methyl-C, cRNA PS-PO mixed, 2'-OMe 3+3, 5' tocopherol), “binds”; in series [2] (setting [9]), “binds”.
Regarding “CTAGTTCACTGAATGC / GCAUUCAGUGAACUAG [Toc-Malat1 HDO, PO-ASO / PO cRNA]”, the binding result in series [3] (setting [10]) and in series [4] (setting [10]) was “binds more weakly” each time.
On to “CTAGTTCACTGAATGC / GCAUUCAGUGAACUAG [Toc-Malat1 HDO, PO-ASO / PS cRNA]”, for which the binding result in series [3] (setting [11]) and in series [4] (setting [11]) was “binds more weakly” each time.
Regarding “CTAGTTCACTGAATGC / GCAUUCAGUGAACUAG [Toc-Malat1 HDO, PO-ASO / PS-PO cRNA]”, the binding result in series [3] (setting [12]) and in series [4] (setting [12]) was “binds more weakly” in each case.
As for “CTAGTTCACTGAATGC / GCAUUCAGUGAACUAG [Toc-Malat1 HDO, PS-ASO / full PO cRNA]”, the binding result in series [1] (as N1 with full PO cRNA), in series [3] (as N1 with full PO cRNA) and in series [4] (as N1 with full PO cRNA) was “binds” throughout.
On to “CTAGTTCACTGAATGC / GCAUUCAGUGAACUAG [Toc-Malat1 HDO, PS-ASO / full PS cRNA]”, for which the binding result in series [1] (as N1 with full PS cRNA), in series [2] (as N1 with full PS cRNA), in series [3] (as N1 with full PS cRNA) and in series [4] (as N1 with full PS cRNA) was “binds” each time.
On to “CTAGTTCACTGAATGC / GCAUUCAGUGAACUAG [Toc-biotin-HDO (Malat1)]”, for which the binding result is on record as “binds more weakly” in series [5] (setting [13]), “binds” in series [6], “binds more weakly” in series [7] (setting [13]) and “binds” in series [8].
Regarding CTAGTTCACTGAATGC [biotin-ASO (Malat1)], the binding result in series [5] (similar to the weak Toc-HDO binding, full PS, LNA 3+3 gapmer, '5'(L) read as LNA 5-methyl-C, protein in an extract, label: 5' biotin-TEG, synthetic backbone) is listed as “binds more weakly”; in series [7] (barely bound, full PS, LNA 3+3 gapmer, '5'(L) read as LNA 5-methyl-C, protein in an extract, label: 5' biotin-TEG, synthetic backbone) it was “binds more weakly”.
Take “GCATTGGTATTCA / UGAAUACCAAUGC [ApoB HDO (13-mer, no Toc)]”: the binding result in series [1] (setting [14]), in series [2] (setting [14]) and in series [4] (setting [14]) was “binds more weakly” throughout.
